Test [1] concerns the target T1, Splicing factor proline/glutamine-rich protein (Sfpq), mouse, endogenous (mouse (endogenous in RAW 264.7 and P19)) (UniProt Q8VIJ6).
T1 sequence: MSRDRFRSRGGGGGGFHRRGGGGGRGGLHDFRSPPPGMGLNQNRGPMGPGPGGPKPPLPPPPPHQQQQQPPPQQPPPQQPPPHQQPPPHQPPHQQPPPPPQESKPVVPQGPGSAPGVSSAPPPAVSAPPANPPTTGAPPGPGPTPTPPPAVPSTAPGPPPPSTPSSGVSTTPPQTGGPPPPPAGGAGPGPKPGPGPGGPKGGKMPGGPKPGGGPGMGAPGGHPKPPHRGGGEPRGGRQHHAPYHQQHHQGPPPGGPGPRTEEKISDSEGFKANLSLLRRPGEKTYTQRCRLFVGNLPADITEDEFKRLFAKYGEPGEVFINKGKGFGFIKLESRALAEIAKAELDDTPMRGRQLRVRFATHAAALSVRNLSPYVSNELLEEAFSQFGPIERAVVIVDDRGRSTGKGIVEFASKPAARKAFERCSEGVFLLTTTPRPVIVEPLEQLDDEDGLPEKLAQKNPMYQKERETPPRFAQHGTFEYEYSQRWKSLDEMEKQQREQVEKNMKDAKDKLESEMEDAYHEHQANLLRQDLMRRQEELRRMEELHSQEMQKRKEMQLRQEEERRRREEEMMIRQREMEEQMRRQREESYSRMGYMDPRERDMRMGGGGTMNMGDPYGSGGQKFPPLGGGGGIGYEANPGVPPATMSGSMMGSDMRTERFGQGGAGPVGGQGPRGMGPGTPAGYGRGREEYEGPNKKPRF
In words: co-IP; endogenous proteins from whole-cell lysates of RAW 264.7, P19 and HEK293T cells; Protein G-Dynabeads-coupled antibodies, 16 h, 4 °C; where indicated RNase A 10 mg/ml for 30 min; cells also transfected with siRNAs against Sfpq, Pspc1 or NonO.

Test [2] concerns the target T2, Splicing factor proline/glutamine-rich protein (Sfpq), human, endogenous (human (endogenous in HEK293T)) (UniProt P23246).
T2 sequence: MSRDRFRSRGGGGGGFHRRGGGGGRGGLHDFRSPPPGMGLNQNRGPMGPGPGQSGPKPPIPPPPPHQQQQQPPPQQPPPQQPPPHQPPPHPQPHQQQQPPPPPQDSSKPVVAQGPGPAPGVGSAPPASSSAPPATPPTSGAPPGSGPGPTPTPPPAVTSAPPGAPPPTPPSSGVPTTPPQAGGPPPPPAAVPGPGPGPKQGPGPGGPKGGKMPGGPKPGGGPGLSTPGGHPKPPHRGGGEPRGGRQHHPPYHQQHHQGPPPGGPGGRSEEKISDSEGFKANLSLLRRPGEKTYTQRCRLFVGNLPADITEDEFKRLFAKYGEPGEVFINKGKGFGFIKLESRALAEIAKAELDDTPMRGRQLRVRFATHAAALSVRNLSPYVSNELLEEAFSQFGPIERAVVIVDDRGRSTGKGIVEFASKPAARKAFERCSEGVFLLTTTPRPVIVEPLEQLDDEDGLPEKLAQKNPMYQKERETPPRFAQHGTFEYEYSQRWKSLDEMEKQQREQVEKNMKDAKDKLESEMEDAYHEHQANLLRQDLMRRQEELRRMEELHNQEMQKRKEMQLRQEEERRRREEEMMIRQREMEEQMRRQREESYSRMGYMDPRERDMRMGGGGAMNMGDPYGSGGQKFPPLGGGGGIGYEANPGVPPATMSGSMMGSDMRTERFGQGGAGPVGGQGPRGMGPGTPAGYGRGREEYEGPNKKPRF
The test is described as above.

In paper PMC5662751, “Post-transcriptional gene silencing mediated by microRNAs is controlled by nucleoplasmic Sfpq” one finds binding data, which are given here for 3 molecules.

No constants are given. Whether binding was seen depends on the method and setting. In cells and extracts the contact can be indirect. Some entries that bind do so weakly or less than the wild type.

B1: Paraspeckle Component 1 (Pspc1), mouse, endogenous (protein, UniProt Q8R326 1-523)
chain: MMLRGNLKQVRIEKNPARLRALESAAGESEPVAAAAMALTLAGEQAPPPAPSEEHPDEELGFTIDIKSFLKPGEKTYTQRCRLFVGNLPTDITEEDFKRLFERYGEPSEVFINRDRGFGFIRLESRTLAEIAKAELDGTILKSRPLRIRFATHGAALTVKNLSPVVSNELLEQAFSQFGPVEKAVVVVDDRGRATGKGFVEFAAKPPARKALERCGDGAFLLTTTPRPVIVEPMEQFDDEDGLPEKLMQKTQQYHKEREQPPRFAQPGTFEFEYASRWKALDEMEKQQREQVDRNIREAKEKLEAEMEAARHEHQLMLMRQDLMRRQEELRRLEELRNQELQKRKQIQLRHEEEHRRREEEMIRHREQEELRRQQEGGFKPNYMENREQEMRMGDMGPRGAINMGDAFSPAPAGTQGPPPMMGMNMNNRGTIPGPPMGPGPAMGPEGAANMGTPMIPDNGAVHNDRFPQGPPSQMGSPMGNRTGSETPQAPMSGVGPVSGGPGGFGRGSQGGNFEGPNKRRRY
Take B1: in test [1], the binding entry is listed as “binds”.

B2: Non-POU Domain Containing, Octamer-Binding (NonO), mouse, endogenous (protein, UniProt Q99K48 1-473)
chain: MQSNKAFNLEKQNHTPRKHHQHHHQQHHQQQQQQQQQQPPPPIPANGQQASSQNEGLTIDLKNFRKPGEKTFTQRSRLFVGNLPPDITEEEMRKLFEKYGKAGEVFIHKDKGFGFIRLETRTLAEIAKVELDNMPLRGKQLRVRFACHSASLTVRNLPQYVSNELLEEAFSVFGQVERAVVIVDDRGRPSGKGIVEFSGKPAARKALDRCSEGSFLLTTFPRPVTVEPMDQLDDEEGLPEKLVIKNQQFHKEREQPPRFAQPGSFEYEYAMRWKALIEMEKQQQDQVDRNIKEAREKLEMEMEAARHEHQVMLMRQDLMRRQEELRRMEELHNQEVQKRKQLELRQEEERRRREEEMRRQQEEMMRRQQEGFKGTFPDAREQEIRMGQMAMGGAMGINNRGAMPPAPVPPGTPAPPGPATMMPDGTLGLTPPTTERFGQAATMEGIGAIGGTPPAFNRPAPGAEFAPNKRRRY
On to B2, for which the binding result in test [1] is “binds”.

B3: Paraspeckle Component 1 (Pspc1), human, endogenous (protein, UniProt Q8WXF1 1-523)
chain: MMLRGNLKQVRIEKNPARLRALESAVGESEPAAAAAMALALAGEPAPPAPAPPEDHPDEEMGFTIDIKSFLKPGEKTYTQRCRLFVGNLPTDITEEDFKRLFERYGEPSEVFINRDRGFGFIRLESRTLAEIAKAELDGTILKSRPLRIRFATHGAALTVKNLSPVVSNELLEQAFSQFGPVEKAVVVVDDRGRATGKGFVEFAAKPPARKALERCGDGAFLLTTTPRPVIVEPMEQFDDEDGLPEKLMQKTQQYHKEREQPPRFAQPGTFEFEYASRWKALDEMEKQQREQVDRNIREAKEKLEAEMEAARHEHQLMLMRQDLMRRQEELRRLEELRNQELQKRKQIQLRHEEEHRRREEEMIRHREQEELRRQQEGFKPNYMENREQEMRMGDMGPRGAINMGDAFSPAPAGNQGPPPMMGMNMNNRATIPGPPMGPGPAMGPEGAANMGTPMMPDNGAVHNDRFPQGPPSQMGSPMGSRTGSETPQAPMSGVGPVSGGPGGFGRGSQGGNFEGPNKRRRY
B3: the binding result in test [2] was “binds”.
